According to doi:10.1101/2024.01.16.575949:

Experiments:
Experiment in all cases: affinity purification with mass spectrometry
[1] = target: T1, Halo-ING2 (UniProt Q9H160)
T1 sequence: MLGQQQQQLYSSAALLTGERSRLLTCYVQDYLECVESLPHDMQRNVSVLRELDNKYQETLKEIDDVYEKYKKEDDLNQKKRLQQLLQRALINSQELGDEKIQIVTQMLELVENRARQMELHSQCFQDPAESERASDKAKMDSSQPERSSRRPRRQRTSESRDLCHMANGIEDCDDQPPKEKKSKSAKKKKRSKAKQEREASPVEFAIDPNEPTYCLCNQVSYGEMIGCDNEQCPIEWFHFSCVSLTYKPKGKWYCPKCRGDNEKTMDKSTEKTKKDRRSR

[2] = target: T2, Halo-SAP30L (UniProt Q9HAJ7)
T2 sequence: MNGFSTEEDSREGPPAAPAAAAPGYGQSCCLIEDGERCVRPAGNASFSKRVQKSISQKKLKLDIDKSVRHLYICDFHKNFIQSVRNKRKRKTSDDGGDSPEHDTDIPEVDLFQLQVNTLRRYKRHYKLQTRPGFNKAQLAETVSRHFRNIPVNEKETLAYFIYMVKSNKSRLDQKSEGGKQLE

[3] = target: T3, Halo-SUDS3 (UniProt Q9H7L9)
T3 sequence: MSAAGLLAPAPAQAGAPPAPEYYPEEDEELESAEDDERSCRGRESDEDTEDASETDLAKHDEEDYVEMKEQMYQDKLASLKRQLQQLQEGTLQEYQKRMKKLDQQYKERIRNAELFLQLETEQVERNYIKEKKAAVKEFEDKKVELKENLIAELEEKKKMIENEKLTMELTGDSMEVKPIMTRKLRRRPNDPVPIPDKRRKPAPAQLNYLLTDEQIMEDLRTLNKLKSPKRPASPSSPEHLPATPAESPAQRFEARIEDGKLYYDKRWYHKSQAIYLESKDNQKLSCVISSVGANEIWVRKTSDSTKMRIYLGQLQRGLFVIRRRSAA

Measured: binding

B1: endogenous FAM60A (protein, UniProt Q9NP50 1-221)
chain: MFGFHKPKMYRSIEGCCICRAKSSSSRFTDSKRYEKDFQSCFGLHETRSGDICNACVLLVKRWKKLPAGSKKNWNHVVDARAGPSLKTTLKPKKVKTLSGNRIKSNQISKLQKEFKRHNSDAHSTTSSASPAQSPCYSNQSDDGSDTEMASGSNRTPVFSFLDLTYWKRQKICCGIIYKGRFGEVLIDTHLFKPCCSNKKAAAEKPEEQGPEPLPISTQEW
binds: all assays above

No constants are given. Whether binding was seen depends on the method and setting. In cells and extracts the contact can be indirect. These calls come from enrichment with a bait or labelling near it, and not all partners need be listed.
